Measured values published in the supplement of paper PMC10849652.
The other results are listed elsewhere or left out.

Protein sequences, listed by entry. Tags and fused reporters are not part of them. Lines headed by an entry give the natural chain unless they say otherwise; changes in a name come on top.
UniProt Q6ZW49, whole entry, looked up: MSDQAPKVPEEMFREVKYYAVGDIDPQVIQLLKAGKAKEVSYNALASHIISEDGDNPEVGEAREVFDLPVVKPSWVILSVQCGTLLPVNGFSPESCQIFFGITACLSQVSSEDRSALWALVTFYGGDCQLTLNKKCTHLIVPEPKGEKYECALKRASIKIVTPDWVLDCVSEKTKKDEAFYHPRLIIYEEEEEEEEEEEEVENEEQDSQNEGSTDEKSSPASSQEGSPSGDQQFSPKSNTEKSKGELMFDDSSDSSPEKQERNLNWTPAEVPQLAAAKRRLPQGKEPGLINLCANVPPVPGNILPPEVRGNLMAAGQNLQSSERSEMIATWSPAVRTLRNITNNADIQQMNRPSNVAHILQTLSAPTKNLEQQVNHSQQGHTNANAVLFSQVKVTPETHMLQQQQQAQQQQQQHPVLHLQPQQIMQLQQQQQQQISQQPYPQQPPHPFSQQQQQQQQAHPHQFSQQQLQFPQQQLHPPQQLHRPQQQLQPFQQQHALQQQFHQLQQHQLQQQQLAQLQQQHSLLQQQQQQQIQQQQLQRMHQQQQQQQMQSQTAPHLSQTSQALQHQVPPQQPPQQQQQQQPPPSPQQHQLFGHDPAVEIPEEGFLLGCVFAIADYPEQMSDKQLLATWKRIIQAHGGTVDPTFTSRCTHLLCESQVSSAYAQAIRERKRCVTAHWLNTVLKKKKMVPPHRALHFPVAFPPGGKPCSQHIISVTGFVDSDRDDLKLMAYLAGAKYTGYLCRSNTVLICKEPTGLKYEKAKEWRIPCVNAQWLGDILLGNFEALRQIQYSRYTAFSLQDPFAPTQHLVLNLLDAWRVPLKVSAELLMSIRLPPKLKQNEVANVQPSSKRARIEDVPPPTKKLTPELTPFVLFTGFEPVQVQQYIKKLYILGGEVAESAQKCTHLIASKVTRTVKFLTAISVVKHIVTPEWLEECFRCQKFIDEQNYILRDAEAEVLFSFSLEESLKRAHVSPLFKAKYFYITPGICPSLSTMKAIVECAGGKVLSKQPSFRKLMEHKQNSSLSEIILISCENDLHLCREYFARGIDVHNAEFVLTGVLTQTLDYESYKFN
UniProt Q9UGN5: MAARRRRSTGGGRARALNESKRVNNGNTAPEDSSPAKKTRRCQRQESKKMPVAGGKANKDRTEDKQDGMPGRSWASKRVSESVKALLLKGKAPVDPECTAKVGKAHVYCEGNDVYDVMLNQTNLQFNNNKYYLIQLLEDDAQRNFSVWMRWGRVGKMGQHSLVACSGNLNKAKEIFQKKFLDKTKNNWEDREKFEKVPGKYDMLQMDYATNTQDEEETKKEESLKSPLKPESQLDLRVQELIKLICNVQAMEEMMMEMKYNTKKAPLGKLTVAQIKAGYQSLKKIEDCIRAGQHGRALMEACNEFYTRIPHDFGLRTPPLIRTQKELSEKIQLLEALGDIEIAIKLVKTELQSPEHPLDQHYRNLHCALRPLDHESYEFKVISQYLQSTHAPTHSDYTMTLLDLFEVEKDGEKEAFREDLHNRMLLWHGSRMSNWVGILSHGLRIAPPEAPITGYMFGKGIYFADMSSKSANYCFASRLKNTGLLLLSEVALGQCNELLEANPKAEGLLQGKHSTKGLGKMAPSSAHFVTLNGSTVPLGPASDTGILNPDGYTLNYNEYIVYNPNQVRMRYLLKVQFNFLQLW
UniProt Q9NTI5: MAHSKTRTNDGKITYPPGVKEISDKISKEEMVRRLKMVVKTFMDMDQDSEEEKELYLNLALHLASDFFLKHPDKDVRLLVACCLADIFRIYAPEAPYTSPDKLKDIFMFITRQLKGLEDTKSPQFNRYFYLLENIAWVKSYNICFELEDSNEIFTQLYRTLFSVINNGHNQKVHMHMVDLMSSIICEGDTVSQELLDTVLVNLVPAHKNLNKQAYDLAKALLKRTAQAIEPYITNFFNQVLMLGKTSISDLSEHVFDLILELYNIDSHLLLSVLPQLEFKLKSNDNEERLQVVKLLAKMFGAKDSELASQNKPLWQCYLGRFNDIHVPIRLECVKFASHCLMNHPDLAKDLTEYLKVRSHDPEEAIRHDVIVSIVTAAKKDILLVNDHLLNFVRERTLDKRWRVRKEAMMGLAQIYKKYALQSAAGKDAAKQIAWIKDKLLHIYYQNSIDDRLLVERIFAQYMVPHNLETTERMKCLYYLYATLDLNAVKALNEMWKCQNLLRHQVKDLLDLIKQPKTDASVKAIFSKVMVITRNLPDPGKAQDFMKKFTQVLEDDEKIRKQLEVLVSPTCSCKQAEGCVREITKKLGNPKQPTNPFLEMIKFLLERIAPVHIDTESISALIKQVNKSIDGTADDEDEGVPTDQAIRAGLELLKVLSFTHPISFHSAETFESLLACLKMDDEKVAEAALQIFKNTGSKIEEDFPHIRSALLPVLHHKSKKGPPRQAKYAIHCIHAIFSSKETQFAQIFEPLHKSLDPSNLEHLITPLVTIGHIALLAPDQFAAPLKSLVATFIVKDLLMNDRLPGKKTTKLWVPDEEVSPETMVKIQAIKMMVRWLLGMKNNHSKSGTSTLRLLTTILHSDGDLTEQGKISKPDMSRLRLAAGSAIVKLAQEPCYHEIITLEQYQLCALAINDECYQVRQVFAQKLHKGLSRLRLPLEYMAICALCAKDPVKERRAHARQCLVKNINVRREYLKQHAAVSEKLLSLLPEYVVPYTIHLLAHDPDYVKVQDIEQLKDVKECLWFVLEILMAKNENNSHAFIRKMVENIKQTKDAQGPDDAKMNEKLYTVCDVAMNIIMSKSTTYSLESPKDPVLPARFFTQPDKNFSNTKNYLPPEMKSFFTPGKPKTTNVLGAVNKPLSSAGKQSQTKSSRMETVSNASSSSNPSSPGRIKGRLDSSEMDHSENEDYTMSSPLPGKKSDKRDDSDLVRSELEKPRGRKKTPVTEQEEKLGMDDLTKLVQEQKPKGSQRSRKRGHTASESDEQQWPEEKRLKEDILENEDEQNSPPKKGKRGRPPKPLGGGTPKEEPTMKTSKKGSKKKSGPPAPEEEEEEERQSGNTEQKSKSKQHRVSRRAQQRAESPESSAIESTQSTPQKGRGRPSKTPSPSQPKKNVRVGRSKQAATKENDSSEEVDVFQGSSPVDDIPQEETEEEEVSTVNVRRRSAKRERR
UniProt P05166: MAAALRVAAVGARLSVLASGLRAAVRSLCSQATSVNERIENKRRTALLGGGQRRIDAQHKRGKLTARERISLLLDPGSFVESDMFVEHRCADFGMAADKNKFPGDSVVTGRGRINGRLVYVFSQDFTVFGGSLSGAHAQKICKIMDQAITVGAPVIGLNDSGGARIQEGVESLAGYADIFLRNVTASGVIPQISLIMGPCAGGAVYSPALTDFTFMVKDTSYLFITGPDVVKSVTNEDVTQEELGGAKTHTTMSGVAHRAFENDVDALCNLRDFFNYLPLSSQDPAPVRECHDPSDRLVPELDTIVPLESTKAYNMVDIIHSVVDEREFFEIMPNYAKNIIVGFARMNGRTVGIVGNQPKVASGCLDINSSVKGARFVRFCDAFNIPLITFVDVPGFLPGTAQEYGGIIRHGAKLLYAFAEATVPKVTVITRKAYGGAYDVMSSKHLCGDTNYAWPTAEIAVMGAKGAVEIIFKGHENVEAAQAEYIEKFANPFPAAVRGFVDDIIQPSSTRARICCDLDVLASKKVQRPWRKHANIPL
UniProt Q9P0J1: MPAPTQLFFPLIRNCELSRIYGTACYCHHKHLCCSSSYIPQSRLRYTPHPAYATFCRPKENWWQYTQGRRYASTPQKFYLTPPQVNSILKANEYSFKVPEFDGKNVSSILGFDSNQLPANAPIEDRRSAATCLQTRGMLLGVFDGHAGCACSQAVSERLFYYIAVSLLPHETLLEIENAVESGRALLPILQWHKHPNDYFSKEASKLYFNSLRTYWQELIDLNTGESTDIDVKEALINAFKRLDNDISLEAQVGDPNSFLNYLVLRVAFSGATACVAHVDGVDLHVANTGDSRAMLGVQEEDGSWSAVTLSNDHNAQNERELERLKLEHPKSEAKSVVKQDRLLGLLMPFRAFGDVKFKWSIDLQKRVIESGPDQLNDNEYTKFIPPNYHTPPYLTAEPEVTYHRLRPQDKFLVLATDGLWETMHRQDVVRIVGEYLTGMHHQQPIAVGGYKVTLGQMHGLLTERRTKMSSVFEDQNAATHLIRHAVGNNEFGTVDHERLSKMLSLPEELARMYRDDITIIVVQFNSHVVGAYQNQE
UniProt O15534, whole entry, looked up: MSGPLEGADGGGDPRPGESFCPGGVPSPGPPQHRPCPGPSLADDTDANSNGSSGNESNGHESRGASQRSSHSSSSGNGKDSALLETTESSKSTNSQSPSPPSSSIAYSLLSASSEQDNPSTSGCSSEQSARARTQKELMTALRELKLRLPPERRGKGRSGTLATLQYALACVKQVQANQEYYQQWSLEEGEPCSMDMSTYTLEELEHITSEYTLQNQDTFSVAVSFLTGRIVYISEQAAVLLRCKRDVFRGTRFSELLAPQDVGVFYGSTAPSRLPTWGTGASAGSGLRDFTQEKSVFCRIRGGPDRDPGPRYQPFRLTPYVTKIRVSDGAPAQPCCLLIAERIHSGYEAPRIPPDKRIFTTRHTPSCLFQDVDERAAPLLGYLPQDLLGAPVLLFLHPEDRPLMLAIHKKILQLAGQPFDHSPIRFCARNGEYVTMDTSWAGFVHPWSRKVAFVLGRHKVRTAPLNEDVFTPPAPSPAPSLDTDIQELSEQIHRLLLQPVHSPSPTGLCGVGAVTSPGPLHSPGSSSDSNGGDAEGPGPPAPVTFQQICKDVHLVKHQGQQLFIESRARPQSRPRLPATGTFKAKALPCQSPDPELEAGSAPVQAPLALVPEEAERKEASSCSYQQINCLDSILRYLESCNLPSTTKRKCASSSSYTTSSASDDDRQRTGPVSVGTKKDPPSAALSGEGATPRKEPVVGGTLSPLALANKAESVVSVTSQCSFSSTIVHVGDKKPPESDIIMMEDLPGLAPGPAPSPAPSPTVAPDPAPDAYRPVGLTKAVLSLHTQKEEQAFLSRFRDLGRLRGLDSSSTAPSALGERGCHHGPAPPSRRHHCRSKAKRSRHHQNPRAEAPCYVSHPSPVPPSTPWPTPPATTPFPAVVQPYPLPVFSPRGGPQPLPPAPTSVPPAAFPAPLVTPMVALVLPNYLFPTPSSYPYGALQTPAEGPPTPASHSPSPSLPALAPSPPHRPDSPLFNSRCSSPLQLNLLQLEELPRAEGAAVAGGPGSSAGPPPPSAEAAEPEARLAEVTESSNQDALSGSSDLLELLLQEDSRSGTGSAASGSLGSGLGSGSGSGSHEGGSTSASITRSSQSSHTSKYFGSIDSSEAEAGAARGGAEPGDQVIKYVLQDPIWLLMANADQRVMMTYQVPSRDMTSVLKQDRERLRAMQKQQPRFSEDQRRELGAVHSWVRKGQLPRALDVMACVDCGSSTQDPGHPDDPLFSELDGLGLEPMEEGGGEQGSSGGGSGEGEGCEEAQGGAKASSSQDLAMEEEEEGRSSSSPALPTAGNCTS
UniProt P09874, whole entry, looked up: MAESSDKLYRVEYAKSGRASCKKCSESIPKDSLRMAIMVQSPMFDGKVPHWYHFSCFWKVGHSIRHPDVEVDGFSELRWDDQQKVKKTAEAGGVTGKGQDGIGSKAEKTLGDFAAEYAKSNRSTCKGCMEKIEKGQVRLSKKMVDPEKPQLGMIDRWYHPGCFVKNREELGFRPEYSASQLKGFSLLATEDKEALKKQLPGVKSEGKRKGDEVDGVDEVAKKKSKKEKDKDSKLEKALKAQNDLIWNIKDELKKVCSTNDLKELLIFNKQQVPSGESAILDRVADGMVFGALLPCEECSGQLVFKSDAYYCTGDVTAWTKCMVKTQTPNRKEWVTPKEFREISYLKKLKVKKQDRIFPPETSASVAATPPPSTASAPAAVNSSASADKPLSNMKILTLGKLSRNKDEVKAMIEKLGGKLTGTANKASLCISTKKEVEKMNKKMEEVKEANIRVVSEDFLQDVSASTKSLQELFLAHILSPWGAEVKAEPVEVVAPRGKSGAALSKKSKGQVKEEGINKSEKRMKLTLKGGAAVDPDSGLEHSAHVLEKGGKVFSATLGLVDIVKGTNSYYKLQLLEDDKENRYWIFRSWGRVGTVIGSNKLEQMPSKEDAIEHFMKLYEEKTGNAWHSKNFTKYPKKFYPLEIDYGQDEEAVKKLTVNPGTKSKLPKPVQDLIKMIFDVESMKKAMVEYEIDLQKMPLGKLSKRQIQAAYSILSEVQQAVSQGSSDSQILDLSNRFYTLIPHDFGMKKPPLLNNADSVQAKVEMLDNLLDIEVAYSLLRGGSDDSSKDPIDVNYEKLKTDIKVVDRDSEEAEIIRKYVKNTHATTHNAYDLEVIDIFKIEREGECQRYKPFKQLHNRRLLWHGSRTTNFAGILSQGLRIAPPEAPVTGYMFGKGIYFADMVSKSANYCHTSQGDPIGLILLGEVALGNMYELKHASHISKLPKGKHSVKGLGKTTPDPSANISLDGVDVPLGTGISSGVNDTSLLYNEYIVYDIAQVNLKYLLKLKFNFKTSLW

Legend:
Test in all cases: log2 fold change, soluble protein after heating vs DMSO (PISA); higher = thermal stabilisation; K562 lysate, 10 uM; active = over 0.2 and 3.5 SD of the protein, either way, in both replicates (recomputed)
[1] = compound: C1=CC=C(C=C1)[C@H](COC2=CC3=C(C=C2)NC(=O)N3)NC(=O)C4=CC=CN(C4=O)CC5=CC(=C(C=C5)F)F
In short: (§1)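 To prepare the extract, K562 pellets were dounce-homogenised in PBS pH 7.4 with 1 mM MgCl2, giving crude material at 1 mg/mL protein. This was treated with 10 μM compound for 30 min, then heated in aliquots for 3 min over 48°C-58°C before pooling and addition of NP-40 to 0.5% at 4°C. Centrifugation at 21,000xg for 90 min left soluble protein in the supernatant, which TMTpro 16plex LC-MS/MS quantified with equalised channel sums. Results are log-two fold changes in thermal stability compared with solvent controls, from duplicates.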

[2] = compound: CC1=C(SC2=C1C(=N[C@H](C3=NN=C(N32)C)CC(=O)N)C4=CC=C(C=C4)Cl)C
In short: as §1

[3] = compound: CC1=C2C(=CC=C1)N=C(N(C2=O)C3=CC=CC=C3C)CN4C=NC5=C(N=CN=C54)N
In short: as §1

[4] = compound: Cc1sc2c(c1C)C(c1ccc(Cl)cc1)=N[C@@H](CC(=O)OC(C)(C)C)c1nnc(C)n1-2
In short: as §1

[5] = compound: c1ccc([C@@H]2C[C@H]2NC2CCNCC2)cc1
In short: as §1

Measured: log2 fold change

PDLIM4 (UniProt P50479)
inactive: [1] 0.002 | [2] 0.055 | [3] -0.028 | [4] 0.031 | [5] -0.012

PCGF2 (UniProt P35227)
inactive: [1] -0.056 | [2] -0.043 | [3] -0.039 | [4] 0.003 | [5] -0.008

PCSK9 (UniProt Q8NBP7)
inactive: [1] -0.071 | [2] 0.015 | [3] -0.033 | [4] -0.047 | [5] -0.104

PCBP2 isoform 3 (UniProt Q15366)
inactive: [1] -0.011 | [2] 0.017 | [3] -0.041 | [4] 0.061 | [5] 0.05

PGAM5 (UniProt Q96HS1)
inactive: [1] 0.023 | [2] 0.021 | [3] 0.035 | [4] -0.022 | [5] -0.022

PELO (UniProt Q9BRX2)
inactive: [1] -0.014 | [2] 0.05 | [3] 0.034 | [4] 0.087 | [5] 0.27

PFKFB4 (UniProt Q16877)
inactive: [1] -0.066 | [2] 0.023 | [3] 0.059 | [4] -0.053 | [5] -0.007

Quoted from the entries so far (3 entries):
PCSK9 (UniProt Q8NBP7)
inactive: [1] -0.071 | [2] 0.015 | [3] -0.033 | [4] -0.047 | [5] -0.104

PCBP2 isoform 3 (UniProt Q15366)
inactive: [1] -0.011 | [2] 0.017 | [3] -0.041 | [4] 0.061 | [5] 0.05

PGAM5 (UniProt Q96HS1)
inactive: [1] 0.023 | [2] 0.021 | [3] 0.035 | [4] -0.022 | [5] -0.022

Continuation:

PDSS2 (UniProt Q86YH6)
inactive: [1] 0.028 | [2] 0.033 | [3] 0.041 | [4] 0.01 | [5] 0.033

PDZD11 isoform 2 (UniProt Q5EBL8)
inactive: [1] 0.071 | [2] -0.054 | [3] 0.05 | [4] -0.053 | [5] 0.004

PFDN5 (UniProt Q99471)
inactive: [1] 0.039 | [2] -0.006 | [3] -0.05 | [4] -0.007 | [5] 0.081

PEX7 (UniProt O00628)
inactive: [1] 0.01 | [2] -0.041 | [3] -0.088 | [4] -0.096 | [5] 0.031

PEPD (UniProt P12955)
inactive: [1] 0.027 | [2] -0.004 | [3] 0.02 | [4] 0 | [5] -0.017

PEX5 isoform 4 (UniProt P50542)
inactive: [1] 0.051 | [2] -0.009 | [3] -0.038 | [4] -0.019 | [5] 0.076

PDIA4 (UniProt P13667)
inactive: [1] -0.004 | [2] -0.006 | [3] -0.009 | [4] 0.002 | [5] 0.037

PCNA (UniProt P12004)
inactive: [1] 0.005 | [2] 0.005 | [3] 0.017 | [4] 0.033 | [5] -0.038

PARP14 (UniProt Q460N5)
inactive: [1] 0.021 | [2] -0.003 | [3] 0.063 | [4] -0.028 | [5] -0.045

PCMT1 isoform 2 (UniProt P22061)
inactive: [1] -0.005 | [2] -0.054 | [3] 0.003 | [4] 0.091 | [5] 0.045

PDCD2 (UniProt Q16342)
inactive: [1] 0.017 | [2] -0.073 | [3] 0.036 | [4] -0.006 | [5] -0.013

PDSS1 (UniProt Q5T2R2)
inactive: [1] -0.082 | [2] 0.054 | [3] 0.21 | [4] -0.13 | [5] -0.013

PBXIP1 (UniProt Q96AQ6)
inactive: [1] -0.009 | [2] -0.01 | [3] -0.007 | [4] -0.016 | [5] -0.022

PFKFB1 (UniProt P16118)
inactive: [1] -0.001 | [2] 0.036 | [3] 0.137 | [4] -0.054 | [5] 0.096

PFN1 (UniProt P07737)
inactive: [1] -0.004 | [2] 0.009 | [3] 0 | [4] -0.004 | [5] -0.007

PFDN4 (UniProt Q9NQP4)
inactive: [1] 0.033 | [2] -0.039 | [3] 0.007 | [4] 0.086 | [5] -0.037

PES1 (UniProt O00541)
inactive: [1] 0.027 | [2] 0.016 | [3] 0.019 | [4] 0.016 | [5] 0.02

PAXIP1 (UniProt Q6ZW49)
inactive: [1] -0.003 | [2] 0.016 | [3] 0.033 | [4] 0.03 | [5] 0.048

PCK2 (UniProt Q16822)
inactive: [1] 0.017 | [2] 0 | [3] -0.003 | [4] -0.009 | [5] 0.044

PFAS (UniProt O15067)
inactive: [1] 0.007 | [2] 0.017 | [3] 0.02 | [4] 0.042 | [5] 0.023

PBX2 (UniProt P40425)
inactive: [1] 0.021 | [2] -0.002 | [3] 0.047 | [4] 0.025 | [5] 0.005

PDCL3 (UniProt Q9H2J4)
inactive: [1] 0.036 | [2] -0.001 | [3] 0.046 | [4] -0.041 | [5] 0.009

PDLIM5 (UniProt Q96HC4)
inactive: [1] 0.044 | [2] 0 | [3] -0.038 | [4] -0.003 | [5] -0.124

PFDN6 (UniProt O15212)
inactive: [1] 0.015 | [2] -0.091 | [3] -0.068 | [4] 0.017 | [5] 0.102

PEA15 isoform 2 (UniProt Q15121)
inactive: [1] -0.015 | [2] -0.013 | [3] -0.024 | [4] -0.072 | [5] -0.032

PCLO (UniProt Q9Y6V0)
inactive: [1] -0.033 | [2] 0.079 | [3] 0.107 | [4] -0.093 | [5] -0.211

PARP2 (UniProt Q9UGN5)
inactive: [1] 0.036 | [2] -0.052 | [3] 0.035 | [4] -0.021 | [5] 0.052

PEX2 (UniProt P28328)
inactive: [1] -0.243 | [2] 0.053 | [3] -0.048 | [4] 0.116 | [5] -0.365

PATL1 (UniProt Q86TB9)
inactive: [1] -0.025 | [2] 0.048 | [3] -0.018 | [4] 0.031 | [5] 0.043

PDS5B (UniProt Q9NTI5)
inactive: [1] -0.01 | [2] -0.057 | [3] 0.023 | [4] 0.044 | [5] 0.009

PCCB (UniProt P05166)
inactive: [1] 0.033 | [2] -0.01 | [3] -0.004 | [4] -0.004 | [5] 0.023

PDCD4 (UniProt Q53EL6)
inactive: [1] -0.026 | [2] 0.005 | [3] -0.007 | [4] 0.002 | [5] 0.001

PDCD11 (UniProt Q14690)
inactive: [1] -0.041 | [2] 0.059 | [3] -0.114 | [4] -0.056 | [5] 0.037

PEX5 (UniProt J3KPV0)
inactive: [3] 0.231

PDE3B (UniProt Q13370)
inactive: [4] 0.059 | [5] -0.005

PDE4DIP (UniProt E9PS60)
inactive: [3] 0.074 | [4] -0.12 | [5] -0.257

PEX3 (UniProt P56589)
inactive: [4] -0.122 | [5] 0.198

PDXP (UniProt Q96GD0)
inactive: [1] -0.002 | [2] 0.03 | [3] -0.019 | [4] 0.009 | [5] -0.027

PDE6D (UniProt O43924)
inactive: [1] 0.054 | [2] -0.025 | [4] -0.052 | [5] -0.187

PDP1 isoform 2 (UniProt Q9P0J1)
inactive: [4] -0.045

PCBP2 (UniProt F8VRH0)
inactive: [5] 0.232

PDXK (UniProt O00764)
inactive: [1] 0.014 | [2] -0.039 | [3] -0.029 | [4] -0.028 | [5] -0.056

PER1 (UniProt O15534)
inactive: [4] 0.501 | [5] 0.089

PDZD8 (UniProt Q8NEN9)
inactive: [1] -0.036 | [2] -0.012 | [3] -0.042 | [4] -0.013 | [5] -0.012

PCGF6 (UniProt Q9BYE7)
inactive: [3] 0.003 | [4] 0.083 | [5] 0.051

PCBP3 (UniProt P57721)
inactive: [1] -0.028 | [2] 0.014 | [3] -0.026 | [4] 0.021 | [5] 0

PEX6 (UniProt Q13608)
inactive: [1] -0.064 | [2] -0.135 | [4] 0.009 | [5] -0.073

PARP1 (UniProt P09874)
inactive: [1] -0.015 | [2] -0.002 | [3] 0.003 | [4] 0.017 | [5] 0.033

PDIA4, A0A499FI48
inactive: [4] 0.083 | [5] 0.564

PCK1 (UniProt P35558)
inactive: [1] 0.088 | [2] -0.036 | [3] 0.175 | [5] -0.552

PDIK1L (UniProt Q8N165)
inactive: [4] -0.084

PCGF1 (UniProt Q9BSM1)
inactive: [3] 0.085 | [4] -0.008 | [5] -0.103
